{"source": "patent US5419898A", "about": "“Antiallergic composition for ophthalmic or nasal use” (priority 1992, dated 1995)", "origin": "cited, not measured here", "system": "eyes and nasal mucosae", "details": "high concentrations where no insoluble matter is deposited; cited from earlier work"}
{"smiles": "O=C(O)COCCN1CCN(C(c2ccccc2)c2ccc(Cl)cc2)CC1", "note": "(stereo not shown) [Cetirizine, [2-[4-[(4-chlorophenyl)phenylmethyl]-1-piperazinyl-]ethoxy]acetic acid]", "values": [{"measurement": "irritating properties in ophthalmic or nasal use", "value": "strong irritating properties"}]}
